Reference: patent US20100144755A1 (Glaxo Group Limited, priority 2006, published 2010)
Structures can show the parent of a compound that is named as a salt. Some results were stated once for a whole list of compounds, not compound by compound.

The chains behind the UniProt entries cited, without tags or fusion partners.
UniProt Q16539, whole entry: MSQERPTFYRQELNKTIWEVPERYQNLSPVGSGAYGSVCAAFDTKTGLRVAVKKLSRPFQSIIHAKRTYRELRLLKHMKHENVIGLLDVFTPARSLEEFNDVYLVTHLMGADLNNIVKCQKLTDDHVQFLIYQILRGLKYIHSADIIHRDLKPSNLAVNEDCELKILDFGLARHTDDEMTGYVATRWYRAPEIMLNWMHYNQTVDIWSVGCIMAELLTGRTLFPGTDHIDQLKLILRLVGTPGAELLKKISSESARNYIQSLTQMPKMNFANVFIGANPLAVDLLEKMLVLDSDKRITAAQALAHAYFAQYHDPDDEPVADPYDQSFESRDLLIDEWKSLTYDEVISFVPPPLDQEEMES

How the values were obtained:
[1] = system: LPS-stimulated TNFalpha production in human whole blood; experiment: LPS-stimulated cytokine production in human whole blood; type: cell-based; conditions: LPS 50 ng/ml final, 4 hour incubation, ELISA, result in words
[2] = system: TNF-stimulated IL8 production by human neutrophils; experiment: TNF-stimulated IL-8 production from human neutrophils; type: cell-based; conditions: TNF 100 ng/ml, about 20 hrs, screened up to 100 nM; result in words;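 note: IL-8 in cell-free supernatant quantified by sandwich ELISA, inhibition calculated against a compound-free control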
Recombinant human p38α = target: T1, Recombinant human p38α (Homo sapiens, UniProt Q16539); experiment: Time-resolved fluorescence resonance energy transfer (TR-FRET) kinase assay (standard and low volume); type: biochemical; set-up: key: active: a pIC50 of greater than 4.6 up to about a pIC50 of greater than 10.0; conditions: MKK6-activated p38α 100 pM, GST-ATF2 substrate; result in words
T1 construct: His; made in house

SMILES | activity (IC50) against LPS-stimulated cytokine production in human whole blood [1] | activity (IC50) against TNF-stimulated IL-8 production from human neutrophils [2] | activity (pIC50) in TR-FRET p38α kinase assay (Recombinant human p38α)
Cc1ccc(C(=O)NC2CC2)cc1-c1nc(NC2CC(C)(C)NC(C)(C)C2)nc2c1ccc(=O)n2-c1c(F)cccc1F [21(c)] | active | active | 
Cc1ccc(NC(=O)c2cc3ccccc3cn2)cc1-c1nc(NC(CO)CO)nc2c1ccc(=O)n2-c1c(F)cccc1F [37(b), N-[3-(8-(2,6-difluorophenyl)-2-{[2-hydroxy-1-(hydroxymethyl)ethyl]amino}-7-oxo-7,8-dihydropyrido[2,3-d]pyrimidin-4-yl)-4-methylphenyl]-3-isoquinolinecarboxamide trifluoroacetate] | active | active | 
Cc1ccc(C(=O)NCC2CC2)cc1-c1nc(NC2CC(C)(C)NC(C)(C)C2)nc2c1ccc(=O)n2-c1c(F)cccc1F [Example 3, N-(cyclopropylmethyl)-3-{8-(2,6-difluorophenyl)-7-oxo-2-[(2,2,6,6-tetramethyl-4-piperidinyl)amino]-7,8-dihydropyrido[2.3-d]pyrimidin-4-yl}-4-methylbenzamide] | active | active | 
CNCCNc1nc(-c2cc(C(=O)NCC3CC3)ccc2C)c2ccc(=O)n(-c3c(F)cccc3F)c2n1 [Example 4] | active |  | 
Cc1ccc(C(=O)NC2CC2)cc1-c1nc(N2CCC(N)CC2)nc2c1ccc(=O)n2-c1c(F)cccc1F [Example 22, 3-[2-(4-amino-1-piperidinyl)-8-(2,6-difluorophenyl)-7-oxo-7,8-dihydropyrido[2,3-d]pyrimidin-4-yl]-N-cyclopropyl-4-methylbenzamide] | active | active | 
CCCNCCNc1nc(-c2cc(C(=O)NC3CC3)ccc2C)c2ccc(=O)n(-c3c(F)cccc3F)c2n1 [Example 24, N-cyclopropyl-3-(8-(2,6-difluorophenyl)-7-oxo-2-{[2-(propylamino)ethyl]amino}-7,8-dihydropyrido[2,3-d]pyrimidin-4-yl)-4-methylbenzamide] | active | active | 
Cc1ccc(C(=O)NC2CC2)cc1-c1nc(NCCN(C)C)nc2c1ccc(=O)n2-c1c(F)cccc1F [Example 25] | active | active | 
Cc1ccc(C(=O)NCC2CC2)cc1-c1nc(N2CCC(N)CC2)nc2c1ccc(=O)n2-c1c(F)cccc1F [Example 27, 3-[2-(4-amino-1-piperidinyl)-8-(2,6-difluorophenyl)-7-oxo-7,8-dihydropyrido[2,3-d]pyrimidin-4-yl]-N-(cyclopropylmethyl)-4-methylbenzamide] | active |  | 
CNCCNc1nc(-c2cc(C(=O)NCCc3ccccc3)ccc2C)c2ccc(=O)n(-c3c(F)cccc3F)c2n1 [Example 29, 3-(8-(2,6-difluorophenyl)-2-{[2-(methylamino)ethyl]amino}-7-oxo-7,8-dihydropyrido[2,3-d]pyrimidin-4-yl)-4-methyl-N-(2-phenylethyl)benzamide] | active | active | 
Cc1ccc(C(=O)NCCc2ccccc2)cc1-c1nc(NCc2ncc[nH]2)nc2c1ccc(=O)n2-c1c(F)cccc1F [Example 30, 3-{8-(2,6-difluorophenyl)-2-[(1H-imidazol-2-ylmethyl)amino]-7-oxo-7,8-dihydropyrido[2,3-d]pyrimidin-4-yl}-4-methyl-N-(2-phenylethyl)benzamide] | active | active | 
Cc1ccc(NC(=O)c2ccsc2)cc1-c1nc(N2CCC(N)CC2)nc2c1ccc(=O)n2-c1c(F)cccc1F [Example 32, N-{3-[2-(4-amino-1-piperidinyl)-8-(2,6-difluorophenyl)-7-oxo-7,8-dihydropyrido[2,3-d]pyrimidin-4-yl]-4-methylphenyl}-3-thiophenecarboxamide] | active | active | 
Cc1ccc(NC(=O)c2ccsc2)cc1-c1nc(NC(CO)CO)nc2c1ccc(=O)n2-c1c(F)cccc1F [Example 35, N-[3-(8-(2,6-difluorophenyl)-2-{[2-hydroxy-1-(hydroxymethyl)ethyl]amino}-7-oxo-7,8-dihydropyrido[2,3-d]pyrimidin-4-yl)-4-methylphenyl]-3-thiophenecarboxamide] | active | active | 
Cc1ccc(NC(=O)c2ccc(Cl)nc2)cc1-c1nc(NC(CO)CO)nc2c1ccc(=O)n2-c1c(F)cccc1F [Example 38, 6-chloro-N-[3-(8-(2,6-difluorophenyl)-2-{[2-hydroxy-1-(hydroxymethyl)ethyl]-amino}-7-oxo-7,8-dihydropyrido[2,3-d]pyrimidin-4-yl)-4-methylphenyl]-3-pyridinecarboxamide trifluoroacetate] | active | active | 
Cc1ccc(NC(=O)c2ccc(F)c3ccccc23)cc1-c1nc(NC(CO)CO)nc2c1ccc(=O)n2-c1c(F)cccc1F [Example 40, N-[3-(8-(2,6-difluorophenyl)-2-{[2-hydroxy-1-(hydroxymethyl)ethyl]amino}-7-oxo-7,8-dihydropyrido[2,3-d]pyrimidin-4-yl)-4-methylphenyl]-4-fluoro-1-naphthalenecarboxamide trifluoroacetate] | active | active | 
Cc1ccc(NC(=O)c2cccc3cc[nH]c23)cc1-c1nc(NC(CO)CO)nc2c1ccc(=O)n2-c1c(F)cccc1F [Example 44, N-[3-(8-(2,6-difluorophenyl)-2-{[2-hydroxy-1-(hydroxymethyl)ethyl]amino}-7-oxo-7,8-dihydropyrido[2,3-d]pyrimidin-4-yl)-4-methylphenyl]-1H-indole-7-carboxamide trifluoroacetate] | active | active | 
Cc1ccc(C(=O)Nc2ccc(C)c(-c3nc(NC(CO)CO)nc4c3ccc(=O)n4-c3c(F)cccc3F)c2)cc1C [Example 46, N-[3-(8-(2,6-difluorophenyl)-2-{[2-hydroxy-1-(hydroxymethyl)ethyl]amino}-7-oxo-7,8-dihydropyrido[2,3-d]pyrimidin-4-yl)-4-methylphenyl]-3,4-dimethylbenzamide trifluoroacetate] | active | active | 
Cc1ccc(C(=O)Nc2ccc(C)c(-c3nc(NC(CO)CO)nc4c3ccc(=O)n4-c3c(F)cccc3F)c2)cc1F [Example 47, N-[3-(8-(2,6-difluorophenyl)-2-{[2-hydroxy-1-(hydroxymethyl)ethyl]amino}-7-oxo-7,8-dihydropyrido[2,3-d]pyrimidin-4-yl)-4-methylphenyl]-3-fluoro-4-methylbenzamide trifluoroacetate] | active | active | 
Cc1ccc(NC(=O)c2cccs2)cc1-c1nc(NC(CO)CO)nc2c1ccc(=O)n2-c1c(F)cccc1F [Example 54, N-[3-(8-(2,6-difluorophenyl)-2-{[2-hydroxy-1-(hydroxymethyl)ethyl]amino}-7-oxo-7,8-dihydropyrido[2,3-d]pyrimidin-4-yl)-4-methylphenyl]-2-thiophenecarboxamide trifluoroacetate] | active | active | 
CNCCNc1nc(-c2cc(C(=O)NC3CCCC3)ccc2C)c2ccc(=O)n(-c3c(F)cccc3F)c2n1 [Example 58, N-cyclopentyl-3-(8-(2,6-difluorophenyl)-2-{[2-(methylamino)ethyl]amino}-7-oxo-7,8-dihydropyrido[2,3-d]pyrimidin-4-yl)-4-methylbenzamide] | active | active | 
CNCCNc1nc(-c2cc(C(=O)NCc3ccccc3)ccc2C)c2ccc(=O)n(-c3c(F)cccc3F)c2n1 [Example 59, 3-(8-(2,6-difluorophenyl)-2-{[2-(methylamino)ethyl]amino}-7-oxo-7,8-dihydropyrido[2,3-d]pyrimidin-4-yl)-4-methyl-N-(phenylmethyl)benzamide] | active | active | 
CCCNC(=O)c1ccc(C)c(-c2nc(NC3CC(C)(C)NC(C)(C)C3)nc3c2ccc(=O)n3-c2c(F)cccc2F)c1 [Example 63, 3-{8-(2,6-difluorophenyl)-7-oxo-2-[(2,2,6,6-tetramethyl-4-piperidinyl)amino]-7,8-dihydropyrido[2,3-d]pyrimidin-4-yl}-4-methyl-N-propylbenzamide] | active | active | 
CCN(CC)CCCNc1nc(-c2cccc(C(=O)NC3CC3)c2)c2ccc(=O)n(-c3c(F)cccc3F)c2n1 [Example 201, N-cyclopropyl-3-[2-{[3-(diethylamino)propyl]amino}-8-(2,6-difluorophenyl)-7-oxo-7,8-dihydropyrido[2,3-d]pyrimidin-4-yl]benzamide] |  | active | active
